Measurements reported in US20080267980A1.
Results are given in words; binding and its absence hold for the method and conditions named. Some binding calls cover weakened binding; strength is not graded here.

The chains behind the UniProt entries cited, without tags or fusion partners. Residues count along the entry.
UniProt P01024, residues 955-1303: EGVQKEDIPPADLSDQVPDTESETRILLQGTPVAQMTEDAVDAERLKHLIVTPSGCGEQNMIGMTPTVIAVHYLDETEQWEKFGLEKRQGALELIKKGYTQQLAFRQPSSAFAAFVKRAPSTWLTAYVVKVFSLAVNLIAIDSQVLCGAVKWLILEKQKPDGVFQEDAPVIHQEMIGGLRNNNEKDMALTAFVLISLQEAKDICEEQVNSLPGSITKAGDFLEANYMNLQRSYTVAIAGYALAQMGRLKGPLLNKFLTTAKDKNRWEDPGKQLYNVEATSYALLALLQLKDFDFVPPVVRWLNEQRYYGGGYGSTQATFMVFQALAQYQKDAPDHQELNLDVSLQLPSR

Key:
[1] = target: Human C3dg-biotin (human) (UniProt P01024); experiment: SPR (BIAcore)
[2] = target: Human C3dg-biotin (human) (UniProt P01024); experiment: SPR, biotinylated C3dg on streptavidin BIAcore chip
[3] = target: Human C3dg-biotin (human) (UniProt P01024); experiment: SPR, C3dg-biotin on streptavidin chip, 1:1 Langmuir fit
[4] = target: Human C3dg-biotin (human) (UniProt P01024); experiment: ELISA, wells coated with purified C3dg, anti-complement inhibitor antibodies
[5] = target: Human C3dg-biotin (human) (UniProt P01024); experiment: SPR (referred to)

Measured: binding

B1: CD59-CR2 (protein)
chain: LQCYNCPNPTADCKTAVNCSSDFDACLITKAGLQVYNKCWKFEHCNFNDVTTRLRENELTYYCCKKDLCNFNEQLENSSGGGGSGGGGSGGGGSISCGSPPPILNGRISYYSTPIAVGTVIRYSCSGTFRLIGEKSLLCITKDKVDGTWDKPAPKCEYFNKYSSCPEPIVPGGYKIRGSTPYRHGDSVTFACKTNFSMNGNKSVWCQANNMWGPTRLPTCVSVFPLECPALPMIHNGHHTSENVGSIAPGLSVTYSCESGYLLVGEKIINCLSSGKWSAVPPTCEEARCKSLGRFPNGKVKEPPILRVGVTANFFCDEGYRLQGPPSSRC
binds: [1] | [2] | [3] | [4]

B2: CR2-DAF (protein)
chain: ISCGSPPPILNGRISYYSTPIAVGTVIRYSCSGTFRLIGEKSLLCITKDKVDGTWDKPAPKCEYFNKYSSCPEPIVPGGYKIRGSTPYRHGDSVTFACKTNFSMNGNKSVWCQANNMWGPTRLPTCVSVFPLECPALPMIHNGHHTSENVGSIAPGLSVTYSCESGYLLVGEKIINCLSSGKWSAVPPTCEEARCKSLGRFPNGKVKEPPILRVGVTANFFCDEGYRLQGPPSSRCVIAGQGVAWTKMPVCGGGSGGGGSDCGLPPDVPNAQPALEGRTSFPEDTVITYKCEESFVKIPGEKDSVICLKGSQWSDIEEFCNRSCEVPTRLNSASLKQPYITQNYFPVGTVVEYECRPGYRREPSLSPKLTCLQNLKWSTAVEFCKKKSCPNPGEIRNGQIDVPGGILFGATISFSCNTGYKLFGSTSSFCLISGSSVQWSDPLPECREIYCPAPPQIDNGIIQGERDHYGYRQSVTYACNKGFTMIGEHSIYCTV
binds: [1] | [5] | [2] | [3] | [4]
